Measurements reported in PubChem BioAssay AID686937 (Drosophila RNAi Screening Center, 2013)
Aim: 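Genes in the fly needed for secretion of protein constitutively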 (primary screen). Cell system: Drosophila S2 cells expressing secreted horseradish peroxidase. Reagent: long dsRNA against Drosophila genes. Time to read-out: about 5.5 days (5 days dsRNA, then 12 h reporter induction). Treatment: reporter expression induced after 5 days of dsRNA, read 12 h later; inducer not stated. Measurement: 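Chemiluminescent measurement of peroxidase in the medium 12 h after reporter induction, following 5 days of dsRNA, given as a z-score per plate; higher means more secretion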. Scale: z-score: higher = more reporter secreted into medium.
The deposit covers about 23,000 reagents; shown is an unselected part of those that have a named target and a result. 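Reduced-secretion tags in replicate 1 do not always agree with the z-scores; no criterion for assigning the tags was given.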 A plus sign joins genes that one reagent is predicted to hit. Not all columns of the deposit are shown. The record does not give: the amount of reagent.

no.	target	amplicon	z-score, replicate 1
1	CG32576	DRSC19136	-1.92
2	CG32445	DRSC11678	-0.77
3	CCT4 (Chaperonin containing TCP1 subunit 4)	DRSC02865	-0.77
4	ppk5 (pickpocket 5)	DRSC11492	0.6
5	CG13047	DRSC09928	0.15
6	TrpA1 (Transient receptor potential cation channel A1)	DRSC10544	0.34
7	RNaseP:RNA (Ribonuclease P RNA)	DRSC22967	-0.66
8	Dfd (Deformed)	DRSC12593	0.32
9	kz (kurz)	DRSC18786	-0.3
10	PlexB (Plexin B)	DRSC17177	0.21
11	CG13689	DRSC00358	0.32
12	CG12376	DRSC06144	0.2
13	CG7276	DRSC10797	0.24
14	Dop1R2 (Dopamine 1-like receptor 2)	DRSC13958	0.27
15	Dop1R2 (Dopamine 1-like receptor 2)	DRSC15379	0.06
16	CG34214	DRSC04490	0.19
17	Mkp3 (Mitogen-activated protein kinase phosphatase 3)	DRSC10084	0.42
18	Mkp3 (Mitogen-activated protein kinase phosphatase 3)	DRSC10085	0.43
19	CG14082	DRSC10086	0.53
20	Cyp4ae1 (Cytochrome P450 4ae1)	DRSC18455	0.16
21	feo (fascetto)	DRSC19398	0.51
22	CG15870	DRSC06588	0.12
23	CG9164	DRSC19087	-0.62
24	CG9164	DRSC20162	0.27
25	GstE10 (Glutathione S transferase E10)	DRSC06671	0.17
26	Arl4 (ADP ribosylation factor-like 4)	DRSC17156	0.29
27	CG2915	DRSC06842	0.49
28	SLIRP1 + anox	DRSC20542	0.29
29	CG42335	DRSC14597	0.37
30	CG42335	DRSC15892	0.32
31	Fs(2)Ket (Female sterile (2) Ketel)	DRSC03328	-7.69
32	CG1138	DRSC12530	0.2
33	CG4607	DRSC18375	0.19

Entries listed so far whose gene name begins with P or p:
target	amplicon	z-score, replicate 1
ppk5 (pickpocket 5)	DRSC11492	0.6
PlexB (Plexin B)	DRSC17177	0.21
